This assay can be described thus: qHTS Assay to Find Inhibitors of Chronic Active B-Cell Receptor Signaling. Conditions: ABC-DLBCL IkBa-CBG/CBR reporter, luminescence ratio (green luciferase fused to IkBa over red control in TMD8 lymphoma cells), 4 h. The procedure, abridged: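 Compounds up to 46 uM were incubated four hours with TMD8 cells whose green CBG68 luciferase is fused to IkappaBalpha; red CBR luminescence normalised the signal, and concentration-effect curves were fitted to fusion, red and ratio data.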
(In general: Quantitative high-throughput screening tests each substance at several concentrations.)

[1] abbreviates: measured here: CBR red luminescence, cell number.
[2] abbreviates: measured here: IkBa-CBG green luminescence.

The list shows a part of the results. These are further read-outs of the screen, such as a control signal, another cell line or another target. No call is given for them. The list favours compounds with an active or inconclusive main result. The note in brackets gives the kind of curve behind each potency; many fits are weak.

What is called AC50 is the midpoint of the concentration-response curve, whichever way the signal moves. Consider `COc1ccc(S(=O)(=O)N2CCCCC2)cc1NC(=O)CNc1ccccc1C(C)=O`, for which, under setting [1], the AC50 is 20.6 µM [falling, partial curve].

For the compound `CN(N)C(=S)Nc1ccc(Cl)cc1`, the concentration at half-maximal activity (AC50) under setting [1] is 31.6 µM [rising, single point].

With `O=C(/C=C/c1cccs1)c1cc(Cl)ccc1OC(=O)N1CCOCC1`, the half-maximal activity concentration (AC50) under setting [2] was 29.1 µM [falling, partial curve, poor fit].

`O=C(N/N=C/c1ccc2c(c1)OCO2)c1ccc2c(c1)OCCO2`: under setting [1], the concentration at half-maximal activity (AC50) is 5.17 µM [falling, partial curve].

For `Cc1cccc(Nc2ncnc3ccc(Br)cc23)c1`, the AC50 under setting [1] is 17.8 µM [falling, partial curve, poor fit].

With `CCOc1cc(N2CCOCC2)c(OCC)cc1NC(=O)c1cccc(N(C)C)c1`, under setting [1], the half-maximal activity concentration (AC50) is 6.31 µM [rising, partial curve, poor fit].

With `CC(C)(C)C(=O)Nc1ccccc1N1CCN(C(=O)c2ccc(Cl)cc2)CC1`, the concentration at half-maximal activity (AC50) under setting [1] is 5.8 µM [falling, partial curve, poor fit].

As for `O=C1C(Cc2ccc(O)cc2)NC(=S)N1c1ccccc1` (stereo not drawn), under setting [1], the AC50 was 2 µM [rising, partial curve, poor fit].

Consider `O=C(O)c1nn(-c2cccc(Cl)c2)c(=O)cc1O`, for which the half-maximal activity concentration (AC50) under setting [1] is 7.94 µM [falling, partial curve, poor fit].

On to `CCCNc1c(NS(=O)(=O)c2ccc(C)cc2C)c(=O)oc2ccccc12`, for which the AC50 under setting [1] was 8.91 µM [falling, partial curve, poor fit].

Consider `O=C1Nc2ccc(Br)cc2C1=Nc1cccnc1`, for which the AC50 under setting [1] was 35.5 µM [rising, partial curve, poor fit] and the AC50 under setting [2] is 22.4 µM [falling, single point].

As to `CN1C/C(=C/c2cccnc2)C(=O)/C(=C/c2cccnc2)C1`, under setting [1], the AC50 is 29.1 µM [falling, single point].

Regarding `Cc1cc(C)c2c(N)c(C(=O)NCC3CCCCC3)sc2n1`, the half-maximal activity concentration (AC50) under setting [1] is 0.0461 µM [rising, full curve, poor fit].

Consider `O=C(/C(C=Nc1ccc(Br)cc1)=C(/O)c1ccco1)C(F)(F)F`, for which, under setting [1], the AC50 is 18.4 µM [falling, single point].

In the case of `CC(C)CCNC(=O)c1ccc(C2SCC(=O)N2Cc2ccco2)cc1` (stereo not drawn), the half-maximal activity concentration (AC50) under setting [1] is 23.1 µM [rising, partial curve, poor fit].

Take `Cc1ccc(C(=O)c2coc3cc([N+](=O)[O-])c(O)c([N+](=O)[O-])c23)cc1`: the concentration at half-maximal activity (AC50) reads like this: under setting [1], 20.6 µM [rising, single point]; under setting [2], 4.11 µM [rising, full curve, poor fit].

On to `CCOC(=O)CSC1=C(C#N)C(c2ccco2)C(C(=O)Nc2cccc(C(F)(F)F)c2)=C(C)N1` (stereo not drawn), for which, under setting [1], the half-maximal activity concentration (AC50) is 29.1 µM [rising, single point].

Regarding `COc1ccc(CNc2nc(S(=O)(=O)c3ccccc3)c(Cl)s2)cc1OC`, under setting [1], the AC50 is 16.4 µM [falling, partial curve, poor fit].

For `C=CCN=C1S/C(=C\c2ccc(Cl)cc2)C(=O)N1CC=C`, under setting [1], the AC50 was 7.94 µM [rising, partial curve, poor fit].

Consider `S=c1nc[nH]c2c1cnn2-c1ccccc1`, for which the concentration at half-maximal activity (AC50) under setting [1] was 10 µM [falling, partial curve, poor fit].

For the compound `CC(=O)N1c2ccc(S(=O)(=O)NCC3CCC(C(=O)N4CCCC(C)C4)CC3)cc2CC1C` (stereo not drawn), the concentration at half-maximal activity (AC50) under setting [1] is 12.6 µM [rising, partial curve].

With `Cn1c(CCNC(=O)c2ccccc2)nc2cc(NC(=O)C3CCCCC3)ccc21`, under setting [1], the AC50 was 32.6 µM [rising, partial curve, poor fit].

As to `COc1ccc(C(=O)Nc2ccccc2C(N)=O)cc1`, the AC50 under setting [1] was 16.4 µM [falling, partial curve].

Take `Cc1oc(-c2ccccc2F)nc1CS(=O)(=O)CC(=O)N1CCOCC1`: the AC50 under setting [1] is 32.6 µM [rising, single point].

For the compound `O=C(Nc1ccccc1N1CCN(C(=O)c2ccccc2)CC1)c1ccc2c(c1)OCO2`, the AC50 under setting [1] was 35.5 µM [falling, single point].

As to `COc1ccc(OC)c(S(=O)(=O)Nc2ccc(-c3ccc4nnc(C)n4n3)cc2)c1`, the AC50 reads like this: under setting [1], 8.2 µM [rising, partial curve]; under setting [2], 23.1 µM [falling, partial curve, poor fit].

`Cc1ccc2c(C)nc(Nc3nc(CSc4nnc(C)s4)cc(=O)[nH]3)nc2c1`: the AC50 under setting [1] was 2.51 µM [falling, full curve].

`O=[N+]([O-])c1ccc(N=NNc2ccccc2)cc1`: the AC50 under setting [1] was 0.251 µM [rising, full curve, poor fit].

Turning to `CCCN1C(=O)C(O)(CC(=O)c2ccc(CC)cc2)c2cc(Br)ccc21` (stereo not drawn), the concentration at half-maximal activity (AC50) under setting [1] was 35.5 µM [falling, single point].

As to `CC1CC1c1ccc(/C=C(\C#N)C(=O)Nc2cccc(Cl)c2Cl)o1` (stereo not drawn), the half-maximal activity concentration (AC50) under setting [1] was 1.84 µM [falling, partial curve, poor fit].

With `CCn1nnc(NC(=S)NC(=O)c2ccc(-c3cccc(Cl)c3)o2)n1`, the AC50 by setting is: under setting [1], 3.55 µM [rising, single point]; under setting [2], 3.98 µM [falling, single point].

As for `O=C(NC(=O)N1CCN(c2cccc(Cl)c2)CC1)c1ccc(Cl)cc1`, the AC50 under setting [1] was 12.6 µM [falling, partial curve, poor fit].

Regarding `CS(=O)(=O)N(CC(=O)Nc1ccccc1Sc1ccccc1)c1cccc(Br)c1`, the AC50 under setting [1] is 4.11 µM [rising, single point].

On to `Cc1ccc(C2=N/C(=C\c3ccc(F)cc3)C(=O)N2)cc1`, for which, under setting [1], the half-maximal activity concentration (AC50) is 0.517 µM [rising, full curve, poor fit].

For the compound `O=C1NC2(CCCCC2)N=C1c1ccc(Br)cc1`, the AC50 under setting [1] was 5.17 µM [rising, single point].

Turning to `CC1=NN(c2ccc(Cl)cc2)C(=O)C1C(c1cccc(O)c1)c1c(C)[nH]n(-c2ccc(Cl)cc2)c1=O` (stereo not drawn), the AC50 by setting is: under setting [1], 29.1 µM [falling, single point]; under setting [2], 25.9 µM [rising, partial curve, poor fit].

`Cc1ccc(S(=O)(=O)/C(C#N)=C/c2c(N3CCC(C(N)=O)CC3)nc3c(C)cccn3c2=O)cc1`: the AC50 under setting [1] was 7.31 µM [falling, partial curve, poor fit].

As to `Cc1ccsc1/C=N/NC(=O)CC(=O)NCC(C)C`, the concentration at half-maximal activity (AC50) under setting [1] is 12.6 µM [rising, partial curve, poor fit].
